Test: Measurement of change of body weight and liver mass after 12 weeks' diet
Type: in vivo, rat
Conditions: male Sprague-Dawley rats
[1] = Control diet with CF1, 10 mg/kg daily oral gavage
[2] = EtOH diet (6% ethanol) with CF1, 10 mg/kg daily oral gavage

In the case of `CC(C)[C@@]1(C(=O)N[C@H]2CC(=O)O[C@]2(O)CF)CC(c2nccc3ccccc23)=NO1` [CF1, (4S,5S)-5-fluoromethyl-5-hydroxy-4-({[(5R)-5-isopropyl-3-(isoquinolin-1-yl)-4,5-dihydro-5-isoxazolyl]carbonyl}amino)-dihydrofuran-2-one], the “Body Weight” value [1] is reported as 400.0 ± 20.00 g, the “Liver Mass” value [1] is reported as 10.37 ± 1.10 g and the “Body Weight” value [2] is reported as 372.5 ± 17.08 g. For the same molecule, the “Liver Mass” value [2] was 11.36 ± 0.87 g.
